Results are given in words; binding and its absence hold for the method and conditions named. Some binding calls cover weakened binding; strength is not graded here.
Experiments:
[1] = biological target: Swr1 (residues 1–1514 with an N-terminal 8-histidine and C-terminal twin Strep-tag) (yeast) (UniProt Q05471); assay: co-purification of co-expressed subunits (StrepTactin affinity, ion exchange, SDS gel); all fourteen genes co-expressed in High Five cells; lysis and wash in 50 mM Tris pH 8.0, 500 mM NaCl; captured by the twin Strep-tag of Swr1 or its variant on StrepTactin HP, then HiTrap Q HP; bands on the SDS gel identified by mass spectrometry
[2] = biological target: Swr1 N-terminal truncation to residue 299 (yeast) (UniProt Q05471); assay: as above
[3] = biological target: Swr1 N-terminal truncation to residue 369 (yeast) (UniProt Q05471); assay: as above
[4] = biological target: Swr1 N-terminal truncation to residue 409 (yeast) (UniProt Q05471); assay: as above
[5] = biological target: Swr1 N-terminal truncation to residue 459 (yeast) (UniProt Q05471); assay: as above
[6] = biological target: Swr1 N-terminal truncation to residue 662 (yeast) (UniProt Q05471); assay: as above
[7] = biological target: Swr1 N-terminal truncation, 339 residues deleted (yeast) (UniProt Q05471); assay: as above
[8] = biological target: Swr1 N-terminal truncation, first 210 residues removed (yeast) (UniProt Q05471); assay: as above
[9] = biological target: Swr1 N-terminal truncation, first 264 residues removed (yeast) (UniProt Q05471); assay: as above
[10] = biological target: Swr1 C-terminal truncation to 1359 (yeast) (UniProt Q05471); assay: as above
[11] = biological target: T1, Yaf9 (yeast) (UniProt P53930); assay: co-purification of co-expressed subunits (StrepTactin affinity, ion exchange, SDS gel); as a1, but the Yaf9 gene omitted from the co-expression
T1 sequence: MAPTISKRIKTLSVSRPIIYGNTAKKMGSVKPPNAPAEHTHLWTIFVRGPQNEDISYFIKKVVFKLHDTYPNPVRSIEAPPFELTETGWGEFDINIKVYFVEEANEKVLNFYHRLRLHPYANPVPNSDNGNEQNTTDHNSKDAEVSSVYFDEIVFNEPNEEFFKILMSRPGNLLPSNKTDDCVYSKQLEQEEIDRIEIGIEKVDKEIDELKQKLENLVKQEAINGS

Amino acid sequences for entries named in this document (tags omitted). A change or cut given only in a name is not applied to a line headed by its entry. Residues count along the entry.
UniProt Q05471: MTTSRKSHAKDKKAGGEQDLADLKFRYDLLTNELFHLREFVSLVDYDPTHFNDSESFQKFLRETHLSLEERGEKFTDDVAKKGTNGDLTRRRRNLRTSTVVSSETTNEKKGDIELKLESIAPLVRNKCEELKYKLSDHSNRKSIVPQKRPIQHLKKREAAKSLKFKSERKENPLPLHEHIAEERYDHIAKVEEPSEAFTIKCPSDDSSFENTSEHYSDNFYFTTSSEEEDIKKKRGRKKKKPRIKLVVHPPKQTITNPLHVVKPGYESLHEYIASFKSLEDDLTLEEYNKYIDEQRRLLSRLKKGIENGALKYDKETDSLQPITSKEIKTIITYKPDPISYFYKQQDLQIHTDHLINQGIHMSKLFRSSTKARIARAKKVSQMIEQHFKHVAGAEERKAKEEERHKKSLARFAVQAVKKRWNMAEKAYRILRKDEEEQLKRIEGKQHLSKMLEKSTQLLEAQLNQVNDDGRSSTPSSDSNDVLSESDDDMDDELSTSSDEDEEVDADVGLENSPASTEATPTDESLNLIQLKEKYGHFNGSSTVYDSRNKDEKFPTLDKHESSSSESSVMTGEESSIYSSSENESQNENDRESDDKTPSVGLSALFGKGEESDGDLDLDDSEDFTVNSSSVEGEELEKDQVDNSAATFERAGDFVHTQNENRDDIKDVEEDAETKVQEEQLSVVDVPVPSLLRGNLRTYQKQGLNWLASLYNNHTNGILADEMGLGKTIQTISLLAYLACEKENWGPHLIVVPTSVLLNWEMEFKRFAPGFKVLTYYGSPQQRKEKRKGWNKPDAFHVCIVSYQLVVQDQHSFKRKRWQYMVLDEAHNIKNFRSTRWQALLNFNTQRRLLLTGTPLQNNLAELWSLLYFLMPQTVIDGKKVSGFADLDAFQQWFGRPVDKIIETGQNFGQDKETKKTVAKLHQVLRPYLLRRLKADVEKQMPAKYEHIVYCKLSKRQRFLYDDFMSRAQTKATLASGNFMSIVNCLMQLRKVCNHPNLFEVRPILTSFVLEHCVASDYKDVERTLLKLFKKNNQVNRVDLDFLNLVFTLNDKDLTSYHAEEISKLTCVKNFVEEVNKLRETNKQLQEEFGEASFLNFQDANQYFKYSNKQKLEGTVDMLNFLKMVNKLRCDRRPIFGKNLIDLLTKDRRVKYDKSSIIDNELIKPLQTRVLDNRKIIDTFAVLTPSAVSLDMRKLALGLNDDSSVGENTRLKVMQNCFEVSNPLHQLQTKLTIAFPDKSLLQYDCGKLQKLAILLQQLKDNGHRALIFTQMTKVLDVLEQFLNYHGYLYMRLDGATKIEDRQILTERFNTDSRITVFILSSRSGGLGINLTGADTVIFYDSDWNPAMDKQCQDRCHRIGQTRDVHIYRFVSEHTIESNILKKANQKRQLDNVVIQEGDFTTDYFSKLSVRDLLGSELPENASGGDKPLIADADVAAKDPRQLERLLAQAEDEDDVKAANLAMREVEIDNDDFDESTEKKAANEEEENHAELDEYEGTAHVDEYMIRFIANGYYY
Swr1 C-terminal truncation to 1359: residues 1-1359 of Q05471
Swr1 N-terminal truncation, first 210 residues removed: residues 211-1514 of Q05471
Swr1 N-terminal truncation, first 264 residues removed: residues 265-1514 of Q05471
Swr1 N-terminal truncation to residue 299: residues 300-1514 of Q05471
Swr1 N-terminal truncation, 339 residues deleted: residues 340-1514 of Q05471
Swr1 N-terminal truncation to residue 369: residues 370-1514 of Q05471
Swr1 N-terminal truncation to residue 409: residues 410-1514 of Q05471
Swr1 N-terminal truncation to residue 459: residues 460-1514 of Q05471
Swr1 N-terminal truncation to residue 662: residues 663-1514 of Q05471
UniProt Q12509: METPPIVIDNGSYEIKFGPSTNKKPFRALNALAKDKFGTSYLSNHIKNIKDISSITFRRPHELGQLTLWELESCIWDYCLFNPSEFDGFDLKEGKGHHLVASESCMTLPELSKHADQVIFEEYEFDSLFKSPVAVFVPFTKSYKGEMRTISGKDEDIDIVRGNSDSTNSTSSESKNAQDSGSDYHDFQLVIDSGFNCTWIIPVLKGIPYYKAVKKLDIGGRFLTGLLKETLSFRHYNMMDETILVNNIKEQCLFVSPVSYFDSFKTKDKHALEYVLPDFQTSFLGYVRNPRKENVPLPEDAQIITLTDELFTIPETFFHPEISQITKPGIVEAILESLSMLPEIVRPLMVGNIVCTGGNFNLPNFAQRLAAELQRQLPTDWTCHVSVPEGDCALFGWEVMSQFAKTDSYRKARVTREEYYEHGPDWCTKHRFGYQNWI
UniProt Q03940: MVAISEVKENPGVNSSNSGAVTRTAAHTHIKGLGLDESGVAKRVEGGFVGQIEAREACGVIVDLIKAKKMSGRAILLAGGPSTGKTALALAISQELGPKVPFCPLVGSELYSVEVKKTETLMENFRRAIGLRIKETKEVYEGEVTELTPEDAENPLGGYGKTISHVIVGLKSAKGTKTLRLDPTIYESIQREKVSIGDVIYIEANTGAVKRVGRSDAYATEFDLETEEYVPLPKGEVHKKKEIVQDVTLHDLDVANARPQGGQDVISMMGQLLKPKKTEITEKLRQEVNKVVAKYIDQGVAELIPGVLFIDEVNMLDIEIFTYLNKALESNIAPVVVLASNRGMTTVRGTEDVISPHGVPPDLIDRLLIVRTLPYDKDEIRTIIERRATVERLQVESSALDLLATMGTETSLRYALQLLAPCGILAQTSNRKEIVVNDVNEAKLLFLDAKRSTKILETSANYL
UniProt Q03388: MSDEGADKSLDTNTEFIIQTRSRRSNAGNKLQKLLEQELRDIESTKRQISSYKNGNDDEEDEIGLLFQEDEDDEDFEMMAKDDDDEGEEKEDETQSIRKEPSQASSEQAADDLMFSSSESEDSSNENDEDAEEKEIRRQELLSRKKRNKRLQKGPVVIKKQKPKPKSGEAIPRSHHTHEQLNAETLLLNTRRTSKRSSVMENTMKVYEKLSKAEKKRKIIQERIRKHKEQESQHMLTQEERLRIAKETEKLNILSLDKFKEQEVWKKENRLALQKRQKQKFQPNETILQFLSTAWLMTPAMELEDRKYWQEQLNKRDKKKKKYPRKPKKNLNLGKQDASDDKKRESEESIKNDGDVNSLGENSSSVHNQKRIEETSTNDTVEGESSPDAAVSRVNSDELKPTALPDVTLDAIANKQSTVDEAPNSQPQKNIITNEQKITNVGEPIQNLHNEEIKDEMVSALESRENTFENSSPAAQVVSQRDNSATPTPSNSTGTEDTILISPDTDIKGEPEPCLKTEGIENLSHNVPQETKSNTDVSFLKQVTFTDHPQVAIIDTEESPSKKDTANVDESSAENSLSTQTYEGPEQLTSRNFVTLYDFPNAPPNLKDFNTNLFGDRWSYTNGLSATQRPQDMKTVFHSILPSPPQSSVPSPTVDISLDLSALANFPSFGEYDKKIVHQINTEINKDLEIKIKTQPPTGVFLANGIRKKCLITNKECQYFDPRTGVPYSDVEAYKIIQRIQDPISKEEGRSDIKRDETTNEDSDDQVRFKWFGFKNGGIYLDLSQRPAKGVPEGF
UniProt Q03433: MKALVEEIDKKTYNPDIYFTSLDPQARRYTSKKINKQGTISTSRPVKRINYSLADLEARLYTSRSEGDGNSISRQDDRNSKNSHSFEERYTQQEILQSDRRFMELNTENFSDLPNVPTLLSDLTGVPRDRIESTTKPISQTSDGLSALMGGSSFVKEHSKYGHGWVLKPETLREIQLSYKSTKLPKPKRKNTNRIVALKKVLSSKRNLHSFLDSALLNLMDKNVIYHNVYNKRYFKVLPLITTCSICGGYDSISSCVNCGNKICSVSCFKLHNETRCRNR
UniProt Q06707: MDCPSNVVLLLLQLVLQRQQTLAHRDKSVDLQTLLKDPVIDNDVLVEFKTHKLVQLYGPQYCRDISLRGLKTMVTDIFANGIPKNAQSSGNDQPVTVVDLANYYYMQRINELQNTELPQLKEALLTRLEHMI

Measured: binding

Arp6 (from UniProt Q12509 1-438)
not listed: [10] | [11]
binds: all other assays above

Rvb1 (from UniProt Q03940 1-463)
not listed: [10] | [11]
binds: all other assays above

Swc2 (from UniProt Q03388 1-795)
not listed: [10] | [11]
binds: all other assays above

Swc6 (from UniProt Q03433 1-280)
not listed: [11]
binds: all other assays above

Swc7 (from UniProt Q06707 1-132)
binds: [1]

B1: Bdf1 (protein, UniProt P35817 1-686)
chain: MTDITPVQNDVDVNGNNVNDDVSSNLKRPIDQGDPSNGLAEEENPANNQLHLKKARLDGDALTSSPAGLAENGIEGATLAANGENGYNATGSGAEDEQQGLKKEEGGQGTKQEDLDENSKQELPMEVPKEPAPAPPPEPDMNNLPQNPIPKHQQKHALLAIKAVKRLKDARPFLQPVDPVKLDIPFYFNYIKRPMDLSTIERKLNVGAYEVPEQITEDFNLMVNNSIKFNGPNAGISQMARNIQASFEKHMLNMPAKDAPPVIAKGRRSSAQEDAPIVIRRAQTHNGRPKRTIHPPKSKDIYPYESKKPKSKRLQQAMKFCQSVLKELMAKKHASYNYPFLEPVDPVSMNLPTYFDYVKEPMDLGTIAKKLNDWQYQTMEDFERDVRLVFKNCYTFNPDGTIVNMMGHRLEEVFNSKWADRPNLDDYDSDEDSRTQGDYDDYESEYSESDIDETIITNPAIQYLEEQLARMKVELQQLKKQELEKIRKERRLARGSKKRGKRSKGRSGSKNASSKGRRDKKNKLKTVVTYDMKRIITERINDLPTSKLERAIDIIKKSMPNISEDDEVELDLDTLDNHTILTLYNTFFRQYESSSGASNGLDGTSGVTRDASSLSPTSAGSRKRRSKALSQEEQSRQIEKIKNKLAILDSASPLSQNGSPGQIQSAAHNGFSSSSDDDVSSESEEE
binds: [11] | [1] | [8]

B2: Arp4 (protein, UniProt P80428 1-489)
chain: MSNAALQVYGGDEVSAVVIDPGSYTTNIGYSGSDFPQSILPSVYGKYTADEGNKKIFSEQSIGIPRKDYELKPIIENGLVIDWDTAQEQWQWALQNELYLNSNSGIPALLTEPVWNSTENRKKSLEVLLEGMQFEACYLAPTSTCVSFAAGRPNCLVVDIGHDTCSVSPIVDGMTLSKSTRRNFIAGKFINHLIKKALEPKEIIPLFAIKQRKPEFIKKTFDYEVDKSLYDYANNRGFFQECKETLCHICPTKTLEETKTELSSTAKRSIESPWNEEIVFDNETRYGFAEELFLPKEDDIPANWPRSNSGVVKTWRNDYVPLKRTKPSGVNKSDKKVTPTEEKEQEAVSKSTSPAANSADTPNETGKRPLEEEKPPKENNELIGLADLVYSSIMSSDVDLRATLAHNVVLTGGTSSIPGLSDRLMTELNKILPSLKFRILTTGHTIERQYQSWLGGSILTSLGTFHQLWVGKKEYEEVGVERLLNDRFR
binds: [1] | [2] | [7] | [8] | [9]

B3: Yaf9 (protein, UniProt P53930 1-226)
chain: T1 sequence
binds: [1] | [2] | [8] | [9]

B4: Swc3 (protein, UniProt P31376 1-625)
chain: MPAVLRTRSKESSIEQKPASRTRTRSRRGKRGRDDDDDDDDEESDDAYDEVGNDYDEYASRAKLATNRPFEIVAGLPASVELPNYNSSLTHPQSIKNSGVLYDSLVSSRRTWVQGEMFELYWRRPKKIVSESTPAATESPTSGTIPLIRDKMQKMCDCVMSGGPHTFKVRLFILKNDKIEQKWQDEQELKKKEKELKRKNDAEAKRLRMEERKRQQMQKKIAKEQKLQLQKENKAKQKLEQEALKLKRKEEMKKLKEQNKNKQGSPSSSMHDPRMIMNLNLMAQEDPKLNTLMETVAKGLANNSQLEEFKKFIEIAKKRSLEENPVNKRPSVTTTRPAPPSKAKDVAEDHRLNSITLVKSSKTAATEPEPKKADDENAEKQQSKEAKTTAESTQVDVKKEEEDVKEKGVKSEDTQKKEDNQVVPKRKRRKNAIKEDKDMQLTAFQQKYVQGAEIILEYLEFTHSRYYLPKKSVVEFLEDTDEIIISWIVIHNSKEIEKFKTKKIKAKLKADQKLNKEDAKPGSDVEKEVSFNPLFEADCPTPLYTPMTMKLSGIHKRFNQIIRNSVSPMEEVVKEMEKILQIGTRLSGYNLWYQLDGYDDEALSESLRFELNEWEHAMRSRRHKR
not listed: [10] | [11]
binds: all other assays above

B5: Swc4 (protein, UniProt P53201 1-476)
chain: MSSSDIFDVLNIKQKSRSPTNGQVSVPSSSAANRPKPQVTGMQRELFNLLGENQPPVVIKSGNNFKEKMLSTSKPSPWSFVEFKANNSVTLRHWVKGSKELIGDTPKESPYSKFNQHLSIPSFTKEEYEAFMNENEGTQKSVESEKNHNENFTNEKKDESKNSWSFEEIEYLFNLCKKYDLRWFLIFDRYSYNNSRTLEDLKEKFYYTCRNYFKASDPSNPLLSSLNFSAEKEIERKKYLQRLLSRSAAEIAEEEALVVESKKFEMAAKRTLAERESLLRLLDSPHSDQTITQYLTSQGMSQLYNALLADKTRKRKHDLNIPENPWMKQQQQFAQHRQLQQLNVKKSEVKENLSPKKTKRQRQEMQTALKRKSESAYAEQLLKDFNSDERKALGVITHGEKLSPGVYLRSTKLSTFKPALQNKILAILQELSLPSRPVMPSFDVMERQEELLKKINTLIDLKKHVDKYEAGMSITK
binds: [1] | [2] | [8] | [9]

From publication PMC5499540
